For this experiment, the target named is p27^Kip1 (endogenous, mink Mv1Lu cells) (mink (endogenous in Mv1Lu)) (UniProt P46529). The experiment is described as follows: co-IP.

The chains behind the UniProt entries cited, without tags or fusion partners. Where a name states a change or a piece, a line headed by the entry shows the natural chain unless it says otherwise.
UniProt P46529, whole entry: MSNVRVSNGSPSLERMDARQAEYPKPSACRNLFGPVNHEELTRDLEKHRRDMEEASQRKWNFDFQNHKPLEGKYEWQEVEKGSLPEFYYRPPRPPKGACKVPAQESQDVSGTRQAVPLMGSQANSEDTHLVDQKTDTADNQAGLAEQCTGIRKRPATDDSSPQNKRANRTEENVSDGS
UniProt Q00534, whole entry: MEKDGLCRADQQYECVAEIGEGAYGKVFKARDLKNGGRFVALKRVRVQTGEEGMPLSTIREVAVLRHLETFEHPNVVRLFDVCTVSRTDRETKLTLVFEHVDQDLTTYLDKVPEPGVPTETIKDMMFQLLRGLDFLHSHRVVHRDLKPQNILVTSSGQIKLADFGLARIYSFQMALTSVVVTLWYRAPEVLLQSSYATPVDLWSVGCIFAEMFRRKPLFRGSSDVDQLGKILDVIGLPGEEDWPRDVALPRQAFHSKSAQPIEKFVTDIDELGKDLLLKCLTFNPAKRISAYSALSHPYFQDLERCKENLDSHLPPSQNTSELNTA

Results on 2 substances are retold here after doi:10.1101/2020.04.23.058347.

Results are given in words; binding and its absence hold for the method and conditions named. In cells and extracts the contact can be indirect. Some results given as binding are weak or reduced against the parent protein; the word gives no strength.

On to “cdk6^D163N/R31C (human) (from UniProt Q00534 1-326) (enzyme)”, for which the binding result is “binds”.
For “HA-cdk6^WT (human) (from UniProt Q00534 1-326) (enzyme)”, the binding entry is given as “binds”.
